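The test systems are human melanoma cell lines, treated with a pair of drugs for 72 h and then stained and imaged. Each value is the cleaved-PARP-positive fraction of nuclei relative to DMSO-treated wells, in %, so that 100 equals the control and higher values mean more apoptosis. Every drug was used at one fixed concentration, the higher of two screened. These are primary screening values without error estimates. Basal and induced levels differ widely between cell lines.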 An unselected part of the screen is shown.

Every entry is a combination with SNS-314 at 0.004 µM: O=C(Nc1cccc(Cl)c1)Nc1ncc(CCNc2ncnc3ccsc23)s1

Drugs:
tozasertib (0.03 µM): Cc1cc(Nc2cc(N3CCN(C)CC3)nc(Sc3ccc(NC(=O)C4CC4)cc3)n2)n[nH]1
FH535 (5 µM): Cc1cc([N+](=O)[O-])ccc1NS(=O)(=O)c1cc(Cl)ccc1Cl
etoposide (0.1 µM): COc1cc([C@@H]2c3cc4c(cc3[C@@H](O[C@@H]3O[C@@H]5CO[C@@H](C)O[C@H]5[C@H](O)[C@H]3O)[C@H]3COC(=O)[C@H]23)OCO4)cc(OC)c1O
GW9662 (10 µM): O=C(Nc1ccccc1)c1cc([N+](=O)[O-])ccc1Cl
BMS-536924 (1 µM): Cc1cc(N2CCOCC2)cc2[nH]c(-c3c(NC[C@@H](O)c4cccc(Cl)c4)cc[nH]c3=O)nc12
PF-562271 (0.4 µM): CN(c1ncccc1CNc1nc(Nc2ccc3c(c2)CC(=O)N3)ncc1C(F)(F)F)S(C)(=O)=O
BI-D1870 (1 µM): CC(C)CCN1c2nc(Nc3cc(F)c(O)c(F)c3)ncc2N(C)C(=O)C1C (centres undefined)
cisplatin (8 µM): N.N.[Cl][Pt][Cl]
Src-I1 (10 µM): COc1cc2ncnc(Nc3ccc(Oc4ccccc4)cc3)c2cc1OC
TCS401 (8.33 µM): O=C(O)C(=O)Nc1sc2c(c1C(=O)O)CCNC2
CX-4945 (2 µM): O=C(O)c1ccc2c(c1)nc(Nc1cccc(Cl)c1)c1ccncc12
vorinostat (0.4 µM): O=C(CCCCCCC(=O)Nc1ccccc1)NO
NVP-BEZ235 (0.02 µM): Cn1c(=O)n(-c2ccc(C(C)(C)C#N)cc2)c2c3cc(-c4cnc5ccccc5c4)ccc3ncc21
perifosine (2 µM): CCCCCCCCCCCCCCCCCCOP(=O)([O-])OC1CC[N+](C)(C)CC1
XAV939 (10 µM): Oc1nc(-c2ccc(C(F)(F)F)cc2)nc2c1CSCC2
GW441756 (2 µM): Cn1cc(/C=C2\C(=O)Nc3cccnc32)c2ccccc21
PF-04217903 (5 µM): OCCn1cc(-c2cnc3nnn(Cc4ccc5ncccc5c4)c3n2)cn1
ruxolitinib (5 µM): N#CC[C@H](C1CCCC1)n1cc(-c2ncnc3[nH]ccc23)cn1
nilutamide (5 µM): CC1(C)NC(=O)N(c2ccc([N+](=O)[O-])c(C(F)(F)F)c2)C1=O
RKI-983 (2 µM): C[C@@H](N)c1ccc(C(=O)Nc2ccnc3[nH]ccc23)cc1
CP-690550 (5 µM): C[C@@H]1CCN(C(=O)CC#N)C[C@@H]1N(C)c1ncnc2[nH]ccc12
IMD-0354 (0.08 µM): O=C(Nc1cc(C(F)(F)F)cc(C(F)(F)F)c1)c1cc(Cl)ccc1O
CHIR-265 (0.4 µM): Cn1c(Nc2ccc(C(F)(F)F)cc2)nc2cc(Oc3ccnc(-c4ncc(C(F)(F)F)[nH]4)c3)ccc21
nutlin-3 (0.5 µM): COc1ccc(C2=N[C@@H](c3ccc(Cl)cc3)[C@@H](c3ccc(Cl)cc3)N2C(=O)N2CCNC(=O)C2)c(OC(C)C)c1
dasatinib (0.02 µM): Cc1nc(Nc2ncc(C(=O)Nc3c(C)cccc3Cl)s2)cc(N2CCN(CCO)CC2)n1
BI-78D3 (1 µM): O=c1[nH]nc(Sc2ncc([N+](=O)[O-])s2)n1-c1ccc2c(c1)OCCO2
MK-2206 (2 µM): NC1(c2ccc(-c3nc4ccn5c(=O)[nH]nc5c4cc3-c3ccccc3)cc2)CCC1
docetaxel (0.0005 µM): CC(=O)O[C@@]12CO[C@@H]1C[C@H](O)[C@@]1(C)C(=O)[C@H](O)C3=C(C)[C@@H](OC(=O)[C@H](O)[C@@H](NC(=O)OC(C)(C)C)c4ccccc4)C[C@@](O)([C@@H](OC(=O)c4ccccc4)[C@H]21)C3(C)C
L-779450 (1 µM): Oc1cc(-c2nc(-c3ccccc3)[nH]c2-c2ccncc2)ccc1Cl
SU6656 (2 µM): CN(C)S(=O)(=O)c1ccc2c(c1)/C(=C/c1cc3c([nH]1)CCCC3)C(=O)N2
bortezomib (0.005 µM): CC(C)C[C@H](NC(=O)[C@H](Cc1ccccc1)NC(=O)c1cnccn1)B(O)O
YM155 (0.002 µM): COCC[n+]1c2c(n(Cc3cnccn3)c1C)C(=O)c1ccccc1C2=O
vincristine (0.0005 µM): CC[C@]1(O)C[C@H]2CN(CCc3c([nH]c4ccccc34)[C@@](C(=O)OC)(c3cc4c(cc3OC)N(C=O)[C@H]3[C@@](O)(C(=O)OC)[C@H](OC(C)=O)[C@]5(CC)C=CCN6CC[C@]43[C@@H]65)C2)C1
everolimus (0.1 µM): CO[C@H]1C[C@@H]2CC[C@@H](C)[C@@](O)(O2)C(=O)C(=O)N2CCCC[C@H]2C(=O)O[C@H]([C@H](C)C[C@@H]2CC[C@@H](OCCO)[C@H](OC)C2)CC(=O)[C@H](C)/C=C(\C)[C@@H](O)[C@@H](OC)C(=O)[C@H](C)C[C@H](C)/C=C/C=C/C=C/1C

* dasatinib : SK-MEL-5: 236; SK-MEL-30: 43.2
* tozasertib : SK-MEL-5: 198; SK-MEL-30: 178
* CX-4945 : SK-MEL-5: 205; SK-MEL-30: 111
* CP-690550 : SK-MEL-5: 58.1; SK-MEL-30: 64.5
* BI-D1870 : SK-MEL-5: 158; SK-MEL-30: 125
* nutlin-3 : SK-MEL-5: 46.3; SK-MEL-30: 85.0
* perifosine : SK-MEL-5: 168; SK-MEL-30: 68.2
* PF-562271 : SK-MEL-5: 47.6; SK-MEL-30: 82.4
* IMD-0354 : SK-MEL-5: 131; SK-MEL-30: 79.2
* RKI-983 : SK-MEL-5: 448; SK-MEL-30: 109
* docetaxel : SK-MEL-5: 620; SK-MEL-30: 371
* BI-78D3 : SK-MEL-5: 54.4; SK-MEL-30: 139
* nilutamide : SK-MEL-5: 208; SK-MEL-30: 72.9
* GW441756 : SK-MEL-5: 133; SK-MEL-30: 81.7
* vorinostat : SK-MEL-5: 126; SK-MEL-30: 197
* Src-I1 : SK-MEL-5: 185; SK-MEL-30: 74.4
* bortezomib : SK-MEL-5: 649; SK-MEL-30: 933
* XAV939 : SK-MEL-5: 97.2; SK-MEL-30: 72.4
* PF-04217903 : SK-MEL-5: 68.6; SK-MEL-30: 97.1
* L-779450 : SK-MEL-5: 151; SK-MEL-30: 87.5
* SU6656 : SK-MEL-5: 168; SK-MEL-30: 62.7
* YM155 : SK-MEL-5: 2210; SK-MEL-30: 191
* TCS401 : SK-MEL-5: 164; SK-MEL-30: 112
* etoposide : SK-MEL-5: 61.0; SK-MEL-30: 81.0
* GW9662 : SK-MEL-5: 189; SK-MEL-30: 220
* cisplatin : SK-MEL-5: 124; SK-MEL-30: 75.3
* ruxolitinib : SK-MEL-5: 53.3; SK-MEL-30: 119
* everolimus : SK-MEL-5: 157; SK-MEL-30: 135
* MK-2206 : SK-MEL-5: 122; SK-MEL-30: 222
* vincristine : SK-MEL-5: 1350; SK-MEL-30: 285
* BMS-536924 : SK-MEL-5: 197; SK-MEL-30: 107
* NVP-BEZ235 : SK-MEL-5: 111; SK-MEL-30: 163
* CHIR-265 : SK-MEL-5: 1370; SK-MEL-30: 143
* FH535 : SK-MEL-5: 267; SK-MEL-30: 120

Once more, the final 3:

| Second drug | SK-MEL-5 | SK-MEL-30 |
|---|---|---|
| NVP-BEZ235 | 111 | 163 |
| CHIR-265 | 1370 | 143 |
| FH535 | 267 | 120 |

Data from the primary screen of doi:10.1371/journal.pone.0140310, rounded.